For orientation: AC50 means the concentration at which the activity in the assay is half-maximal.

The nature of this assay: qHTS Assay for Lipid Storage Modulators in Drosophila S3 Cells.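 For cell number change: cells counted by Cell Tracker Red CMTPX staining in the red channel.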 The settings on record: BODIPY lipid droplet fluorescence, 18-24 h; for cell number change: measured here: cell count max response, cells fed with added oleic acid. A digest of the protocol:
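Drosophila S3 cells loaded with oleic acid (400 uM, as added) and compounds at several concentrations; lipid droplets imaged by 488-nm laser-scanning cytometry, 500–530 nm intensity and object ratio to cell channel. Percent activity normalized to 20 uM Triacsin C.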
Background: In qHTS, concentration-response curves come from the screen itself.

The mark [1] stands for this setting: measured here: cell number channel AC50, cells fed with added oleic acid.
Where [2] appears, read: measured here: lipid fluorescence (Fed channel) AC50, cells fed with added oleic acid.

Some of the results follow. Further columns of the screen follow, without active or inactive calls. The list favours compounds with an active or inconclusive main result. Words in brackets tell the shape of the fitted curve; partial curves, single points and poor fits give uncertain potencies.

Consider `O=C(CCCn1cnc([N+](=O)[O-])n1)Nc1cccc(O)c1`, for which the AC50 by setting is: under setting [1], 0.517 µM [falling, single point]; under setting [2], 0.731 µM [falling, full curve, poor fit].
For `N#C/C(=C\c1ccccc1)C(=O)Nc1nncs1`, the cell number change is -41.5%. In addition, the AC50 under setting [1] is 16.4 µM [falling, single point]. Moreover, the AC50 under setting [2] is 20.6 µM [falling, single point].
As for `O=C(NNS(=O)(=O)c1ccc(Cl)cc1)c1cc(-c2ccccc2)n[nH]1`, the cell number change amounted to 3.14%. In addition, under setting [2], the AC50 is 2.59 µM [rising, partial curve].
Take `COc1ccc(/C(C)=N/OCC(=O)Nc2nc3ccccc3s2)cc1`: the cell number change amounted to 30.4%. In addition, under setting [1], the AC50 is 7.31 µM [rising, partial curve, poor fit].
Turning to `O=C(NC(=S)NCCc1ccccc1)c1ccccc1F`, the cell number change is -8.8%. Moreover, the AC50 under setting [2] was 20.6 µM [falling, single point].
Take `Cc1cccc(-c2cc(C(=O)Nc3c(C)n(C)n(-c4ccccc4)c3=O)c3ccccc3n2)c1`: the cell number change is 19.4%. The AC50 under setting [2] is 29.1 µM [rising, single point].
For the compound `CC(C)CNC(=O)NC(=O)COC(=O)c1cc([N+](=O)[O-])ccc1NCc1ccccc1Cl`, the cell number change was 13.4%. For the same compound, the AC50 under setting [1] was 2.31 µM [falling, partial curve]. Further, the AC50 under setting [2] is 6.51 µM [falling, single point].
With `NC(=S)N/N=C1/CCSc2ccc3ccccc3c21`, the cell number change was -51.3%. Moreover, under setting [1], the half-maximal activity concentration (AC50) was 32.6 µM [falling, single point]. Also, the AC50 under setting [2] is 16.4 µM [falling, single point].
For the compound `CCn1c(COc2ccc(=O)n(-c3ccccc3)n2)nnc1SCc1ccccc1`, the cell number change turned out to be 88.7%. Moreover, under setting [2], the AC50 is 20.6 µM [rising, partial curve].
As for `O=C(COC(=O)CCC(=O)c1ccccc1)NNC(=O)c1ccc(Cl)cc1`, the cell number change was 4.4%. Further, under setting [1], the concentration at half-maximal activity (AC50) is 6.51 µM [falling, single point].
For `COCCn1c(SCC(=O)N2CCN(c3ccccc3)CC2)nc2c(c1=O)SC(C)C2` (stereo not given), the cell number change came to 16.5%. Moreover, the AC50 under setting [1] was 1.64 µM [rising, single point]. Also, under setting [2], the AC50 is 0.517 µM [rising, partial curve].
With `COc1ccc(CNC(=O)C2C3C=CC4(CN(Cc5cccnc5)C(=O)C24)O3)cc1` (stereo not given), the cell number change amounted to 12.8%. Further, the AC50 under setting [2] is 6.51 µM [rising, single point].
Take `O=C(Nc1ccc(F)c(Cl)c1)C1CCN(S(=O)(=O)c2cccnc2)CC1`: the AC50 under setting [2] was 0.411 µM [rising, full curve, poor fit].
With `COc1ccc2c(c1)Cc1sc(NC(=O)c3ccccc3)nc1-2`, the cell number change was 1.64%. In addition, under setting [1], the AC50 was 3.26 µM [rising, single point]. Further, the AC50 under setting [2] was 1.3 µM [rising, partial curve].
Consider `CCc1nnc(NC(=O)CSc2nnc3nc(C)cc(C)n23)s1`, for which the cell number change came to 14.1%. Besides, under setting [2], the AC50 is 0.116 µM [rising, partial curve, poor fit].
On to `Cc1ccc(-c2csc(NC(=O)CSC3=NCCS3)n2)cc1`, for which the cell number change was -44.1%. In addition, the AC50 under setting [1] is 29.1 µM [falling, single point]. Further, under setting [2], the AC50 was 16.4 µM [falling, single point].
For the compound `CCCCCC(=O)Nc1ccc(C(=O)CN2C(=O)NC3(CCCCCC3)C2=O)cc1`, the cell number change came to 56.5%.
Same read-out and setting: with `Fc1ccccc1/C=N/Nc1ncnc2ccccc12` the figure was 22.7%; with `COc1ccccc1NC(=O)c1ccc(NC(=O)c2nc3nccc(C)n3n2)cc1`, -1.3%.
`COc1ccc(-c2c(C)nn3c(N4CCN(Cc5ccccc5)CC4)cc(C)nc23)cc1OC`: the half-maximal activity concentration (AC50) under setting [2] is 8.2 µM [rising, partial curve, poor fit].
On to `CCOC(=O)N1CCC(Nc2c(NCCN3CCN(c4ccccc4F)CC3)c(=O)c2=O)CC1`, for which the cell number change is -5.89%. Moreover, under setting [2], the AC50 is 1.03 µM [falling, partial curve, poor fit].
On to `Cc1ccc(C2(C)NC(=O)N(CC(=O)NCc3ccccc3Cl)C2=O)cc1` (stereo not given), for which the AC50 under setting [1] was 0.731 µM [rising, single point] and the AC50 under setting [2] was 0.58 µM [rising, single point].
In the case of `COc1ccccc1OCCNC(=O)C1CC(=O)N(c2cccc(SC)c2)C1` (stereo not given), the AC50 under setting [1] is 0.731 µM [rising, partial curve].
For the compound `O=C1C2C3C=CC(CC3)C2C(=O)N1c1ccc(Cl)cc1` (stereo not given), the cell number change was -8.39%. Under setting [2], the AC50 was 6.51 µM [rising, single point].
In the case of `COc1ccc(OCCNC2CCCC2)cc1`, the cell number change worked out at 4.55%. In addition, under setting [2], the AC50 is 1.16 µM [falling, single point].
On to `CCN(CC)c1ccc(C2CC(=O)Nc3cc(OC)c(OC)cc32)cc1` (stereo not given), for which the cell number change is -3.3%. Besides, the AC50 under setting [2] was 7.31 µM [rising, partial curve].
As to `COc1ccc(CC(=O)NCc2ccccc2)cc1`, the cell number change came out at 7.34%. The concentration at half-maximal activity (AC50) under setting [2] is 0.461 µM [rising, full curve, poor fit].
Turning to `COc1cccc(C=Nc2cccnc2)c1O`, the cell number change was -12.3%. For the same compound, the AC50 under setting [2] is 0.259 µM [falling, full curve].
Take `CCOC(=O)c1sc(NC(=O)Nc2cccc(Cl)c2)cc1C`: the cell number change was -76.4%. Further, the AC50 under setting [1] is 14.6 µM [falling, partial curve]. For the same compound, under setting [2], the AC50 was 7.31 µM [falling, partial curve].
Regarding `O=C(c1ccc2nc(N3CCOCC3)sc2c1)N1CCN(c2ccc(Cl)cc2)CC1`, under setting [2], the AC50 is 5.8 µM [rising, partial curve].
Take `O=C(CCN1CCCCC1=O)NC1CCCc2c1cnn2-c1ccccc1F` (stereo not given): the cell number change was determined as 20.2%. In addition, the half-maximal activity concentration (AC50) under setting [2] was 20.6 µM [rising, partial curve].
Consider `Cc1ccc(C(=O)COC(=O)CN2C(=O)C3C4CC(C(Br)C4Br)C3C2=O)cc1` (stereo not given), for which the cell number change came to 7.14%. For the same compound, the AC50 under setting [2] was 29.1 µM [rising, single point].
For the compound `COc1ccc(N(CCC#N)C(=O)/C(C#N)=C/c2cccs2)cc1`, the cell number change came to 13.2%. Also, under setting [2], the AC50 was 2.31 µM [falling, partial curve].
As to `COc1cc(OC)c(OC)cc1CNC1CCCCCC1`, the cell number change is -66.1%. Further, the AC50 under setting [1] was 29.1 µM [falling, single point]. The AC50 under setting [2] was 29.1 µM [falling, single point].
For `COc1ccc(CN(CC(=O)NCC2CCCO2)C(=O)CCC(=O)Nc2nccs2)cc1` (stereo not given), the cell number change is -0.794%. For the same compound, the half-maximal activity concentration (AC50) under setting [1] is 1.46 µM [falling, partial curve].
`CC(C)(C)c1ccc(-n2ncc3c2CCCC3NC(=O)CCN2CCCO2)cc1` (stereo not given): the AC50 under setting [2] is 6.51 µM [falling, single point].
As for `CN(C)c1nc(SCc2ccccc2Cl)nc2c1CCCC2`, the AC50 runs as follows: under setting [1], 0.731 µM [rising, full curve]; under setting [2], 2.31 µM [rising, partial curve].
As to `CCC(=O)Nc1c2c(nn1-c1ccc(F)cc1)CS(=O)C2` (stereo not given), the cell number change is -5.43%. Moreover, under setting [2], the AC50 is 0.00461 µM [falling, full curve, poor fit].
Consider `CC1CCc2nc3ccc(S(=O)(=O)N4CCC(C(=O)NCc5ccccc5Cl)CC4)cc3c(C(=O)O)c2C1` (stereo not given), for which the cell number change is -15.2%.
On to `O=C(O)CC(Cc1ccc(Cl)cc1)C(=O)Nc1cc(Cl)ccc1Cl` (stereo not given), for which the cell number change was -20.8%. Also, under setting [2], the AC50 was 6.51 µM [falling, single point].
Take `COc1cccc(-c2nc(CS(=O)(=O)CC(=O)Nc3cc(OC)ccc3OC)c(C)o2)c1`: the cell number change is -15.3%. Moreover, the AC50 under setting [2] is 13 µM [falling, partial curve, poor fit].
Regarding `CCCCc1ccc(NC(=O)CSc2nc(=O)n(CCN(CC)CC)c3c2CCC3)cc1`, the cell number change turned out to be 14.5%. Moreover, the AC50 under setting [1] is 1.3 µM [falling, full curve, poor fit].
As for `O=C(O)CCCC(=O)Nc1c(F)c(F)c(F)c(F)c1F`, the cell number change was -8.51%.
On the same count and under the same terms, with `COc1ccccc1N1C(=O)C2CC=CC(C)C2C1=O` (stereo not given) the figure was 8.34%; with `Cc1ccc(S(=O)(=O)N(CC(=O)N2CCC(C)CC2)c2ccccc2)cc1`, -10.5%.
For `COc1ccc(C)cc1N=Nc1ccc(O)c2ncccc12`, under setting [2], the AC50 is 14.6 µM [falling, partial curve].
Turning to `COc1cc(OC)cc(-c2cc3nc4c(c(N5CCN(c6ncccn6)CC5)n3n2)CCCC4)c1`, the AC50 runs as follows: under setting [1], 0.731 µM [rising, single point]; under setting [2], 0.731 µM [rising, full curve].
On to `NC(=O)c1nsc(C(=O)N(CC(=O)NCc2ccco2)c2ccccc2F)c1N`, for which the cell number change is -25.9%. Besides, the AC50 under setting [2] is 0.366 µM [falling, full curve, poor fit].
Turning to `O=C(COC(=O)c1cccc(C(=O)OCC(=O)NC2CCCCC2)n1)NC1CCCCC1`, the concentration at half-maximal activity (AC50) under setting [2] was 0.164 µM [falling, full curve, poor fit].
Take `COc1cccc(C(=O)CSc2nnc(CNS(C)(=O)=O)n2-c2ccc(C)cc2)c1`: the half-maximal activity concentration (AC50) under setting [1] was 5.8 µM [rising, single point].
Consider `CSCCC(NS(=O)(=O)c1ccc(C)cc1)C(=O)N1CC=C(c2ccccc2)CC1` (stereo not given), for which the AC50 under setting [2] is 0.82 µM [rising, partial curve].
For the compound `CN(Cc1nc2ccc(F)cc2[nH]1)C(=O)C1CCC(=O)N(C2CC2)C1` (stereo not given), the cell number change is -2.08%.
Take `Cc1ccc(OCc2nnc(N)s2)cc1C`: the cell number change amounted to 65.6%. The concentration at half-maximal activity (AC50) under setting [1] was 4.11 µM [rising, partial curve]. The AC50 under setting [2] is 25.9 µM [rising, single point].
For `N#Cc1c(NC(=O)CSc2nnnn2C2CCCC2)sc2c1CCCC2`, the half-maximal activity concentration (AC50) was 0.58 µM [rising, single point] under setting [1] and 0.58 µM [rising, single point] under setting [2].
As to `COc1cc(C(=O)O)cc(Br)c1OC1CCCC1`, the cell number change is -20.4%. The half-maximal activity concentration (AC50) under setting [1] is 0.259 µM [falling, full curve, poor fit]. For the same compound, the AC50 under setting [2] was 8.2 µM [falling, partial curve].
On to `CCn1c(=O)cc(SCC(=O)N2CCN(c3ccccn3)CC2)c2ccccc21`, for which the cell number change worked out at 246%. Also, under setting [1], the AC50 is 8.2 µM [rising, partial curve]. Further, the concentration at half-maximal activity (AC50) under setting [2] was 5.8 µM [rising, partial curve].
`O=C(CSc1ncn[nH]1)N(C1CCCCC1)C1CCCCC1`: the cell number change came out at 38.7%. In addition, the AC50 under setting [1] was 20.6 µM [rising, single point].
As to `O=S(=O)(c1ccc(N2CCN(Cc3ccc4c(c3)OCO4)CC2)nc1)N1CCOCC1`, the cell number change was 3.38%.
Same read-out and setting: in the case of `O=C1CCc2cc(S(=O)(=O)N3CCC(C(=O)NC4CCCc5ccccc54)CC3)ccc2N1` (stereo not given) it was 10.5%.

(Values after PubChem BioAssay AID2685 (National Center for Advancing Translational Sciences (NCATS), 2010).)
